Source: US4098778A (Hoffmann-La Roche Inc., priority 1977, dated 1978)

Protein sequences, listed by entry. Tags and fused reporters are not part of them. Lines headed by an entry give the natural chain unless they say otherwise; changes in a name come on top.
UniProt P01203: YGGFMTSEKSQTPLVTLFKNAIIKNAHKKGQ

Test: general procedure: Boc solid-phase peptide synthesis; chloromethylated copolystyrene-divinylbenzene resin
Conditions: whole synthesis, scale 50 μmol

Q: For “βc -endorphin-(6-31) (TSEKSQTPLVTLFKNAIIKNAHKKGQ; Beta-endorphin; UniProt P01203 6-31, looked up, fragment)”, which isolated yield (overall, from 50 μmol starting resin) is on record?
A: The isolated yield was 33%.

Q: What about the isolated mass of the same substance?
A: Its isolated mass is 48 mg.
